The target of assay [1] is Pbp1-myc (S. cerevisiae) (UniProt P53297). As to the kind of experiment: affinity purification with mass spectrometry; cells unstressed or glucose-depleted (10 min for Dcp1-myc, 60 min for Pbp1-myc), cross-linked with 0.8% formaldehyde; 20,000 g pellet of the lysate in Blob100 buffer (20 mM Tris-HCl pH 8, 100 mM NaCl, 1 mM MgCl2, 0.5% NP40) on anti-c-Myc magnetic beads, eluted with Myc peptide; label-free LC-MS/MS; hits are the proteins that cluster (Mfuzz) with the tagged bait across IP, pellet, supernatant, total and unbound fractions.

Protein sequences, listed by entry. Tags and fused reporters are not part of them.
UniProt P53297: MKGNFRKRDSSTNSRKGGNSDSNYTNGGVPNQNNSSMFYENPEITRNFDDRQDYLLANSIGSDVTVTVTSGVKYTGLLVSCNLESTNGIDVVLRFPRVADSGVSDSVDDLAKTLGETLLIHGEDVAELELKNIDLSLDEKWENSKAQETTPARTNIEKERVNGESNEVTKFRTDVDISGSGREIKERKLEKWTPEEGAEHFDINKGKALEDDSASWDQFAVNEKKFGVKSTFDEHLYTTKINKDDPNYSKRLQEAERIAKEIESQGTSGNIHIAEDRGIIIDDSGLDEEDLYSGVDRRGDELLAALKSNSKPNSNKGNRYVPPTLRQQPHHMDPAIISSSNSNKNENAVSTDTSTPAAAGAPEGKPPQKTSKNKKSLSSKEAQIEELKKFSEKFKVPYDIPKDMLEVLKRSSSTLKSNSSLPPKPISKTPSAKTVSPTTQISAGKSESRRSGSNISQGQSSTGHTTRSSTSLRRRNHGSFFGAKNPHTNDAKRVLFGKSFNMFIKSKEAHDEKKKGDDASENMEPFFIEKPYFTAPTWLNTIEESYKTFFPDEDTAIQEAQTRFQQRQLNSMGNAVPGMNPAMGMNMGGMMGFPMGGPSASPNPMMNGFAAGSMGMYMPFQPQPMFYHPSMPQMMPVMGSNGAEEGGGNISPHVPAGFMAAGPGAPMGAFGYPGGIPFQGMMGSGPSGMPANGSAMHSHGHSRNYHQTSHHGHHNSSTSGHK
UniProt P04147: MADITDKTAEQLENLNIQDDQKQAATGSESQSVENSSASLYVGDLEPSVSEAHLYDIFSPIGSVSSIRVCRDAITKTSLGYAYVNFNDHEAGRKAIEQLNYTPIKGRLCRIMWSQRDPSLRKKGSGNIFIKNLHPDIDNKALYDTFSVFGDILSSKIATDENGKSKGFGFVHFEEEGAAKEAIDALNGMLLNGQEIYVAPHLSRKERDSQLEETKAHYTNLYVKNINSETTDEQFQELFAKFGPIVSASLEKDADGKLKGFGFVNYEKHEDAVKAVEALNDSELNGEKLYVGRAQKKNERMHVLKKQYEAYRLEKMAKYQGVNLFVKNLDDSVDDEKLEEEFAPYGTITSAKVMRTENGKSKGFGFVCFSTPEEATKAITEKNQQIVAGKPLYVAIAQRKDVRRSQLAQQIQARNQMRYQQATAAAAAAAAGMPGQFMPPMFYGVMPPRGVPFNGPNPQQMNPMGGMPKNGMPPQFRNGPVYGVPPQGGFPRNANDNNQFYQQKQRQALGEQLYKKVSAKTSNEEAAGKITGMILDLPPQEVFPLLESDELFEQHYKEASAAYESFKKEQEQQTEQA
UniProt P23292: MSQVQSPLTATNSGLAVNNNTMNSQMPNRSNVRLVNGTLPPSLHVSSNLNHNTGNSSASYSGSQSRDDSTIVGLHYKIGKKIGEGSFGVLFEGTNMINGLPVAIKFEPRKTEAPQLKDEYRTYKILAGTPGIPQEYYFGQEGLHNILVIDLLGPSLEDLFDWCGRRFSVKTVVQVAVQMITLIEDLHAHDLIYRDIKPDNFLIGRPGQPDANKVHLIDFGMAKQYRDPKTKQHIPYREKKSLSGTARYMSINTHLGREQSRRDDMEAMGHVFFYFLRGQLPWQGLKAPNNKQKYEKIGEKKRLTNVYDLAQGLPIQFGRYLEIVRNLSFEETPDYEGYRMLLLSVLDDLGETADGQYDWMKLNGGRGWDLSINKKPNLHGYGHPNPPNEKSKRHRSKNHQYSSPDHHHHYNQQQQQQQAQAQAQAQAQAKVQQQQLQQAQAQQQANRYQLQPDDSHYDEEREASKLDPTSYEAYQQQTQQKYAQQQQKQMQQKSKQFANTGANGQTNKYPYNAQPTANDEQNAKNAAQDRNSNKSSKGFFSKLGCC
UniProt P06634: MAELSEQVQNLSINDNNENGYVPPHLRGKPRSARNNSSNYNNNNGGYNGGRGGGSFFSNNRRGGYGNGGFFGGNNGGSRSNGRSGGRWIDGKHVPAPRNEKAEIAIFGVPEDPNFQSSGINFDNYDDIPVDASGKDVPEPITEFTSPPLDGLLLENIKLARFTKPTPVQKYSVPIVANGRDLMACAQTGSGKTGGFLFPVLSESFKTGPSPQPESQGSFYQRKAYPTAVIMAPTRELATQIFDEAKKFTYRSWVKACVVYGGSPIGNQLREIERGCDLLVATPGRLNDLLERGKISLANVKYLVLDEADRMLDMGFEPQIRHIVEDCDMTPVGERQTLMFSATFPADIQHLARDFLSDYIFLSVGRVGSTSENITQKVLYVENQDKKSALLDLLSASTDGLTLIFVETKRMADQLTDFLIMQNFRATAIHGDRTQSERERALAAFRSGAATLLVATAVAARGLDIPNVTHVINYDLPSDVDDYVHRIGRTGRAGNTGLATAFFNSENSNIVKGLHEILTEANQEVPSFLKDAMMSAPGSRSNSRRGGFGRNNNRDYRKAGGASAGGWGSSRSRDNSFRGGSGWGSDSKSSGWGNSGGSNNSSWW
UniProt P19657: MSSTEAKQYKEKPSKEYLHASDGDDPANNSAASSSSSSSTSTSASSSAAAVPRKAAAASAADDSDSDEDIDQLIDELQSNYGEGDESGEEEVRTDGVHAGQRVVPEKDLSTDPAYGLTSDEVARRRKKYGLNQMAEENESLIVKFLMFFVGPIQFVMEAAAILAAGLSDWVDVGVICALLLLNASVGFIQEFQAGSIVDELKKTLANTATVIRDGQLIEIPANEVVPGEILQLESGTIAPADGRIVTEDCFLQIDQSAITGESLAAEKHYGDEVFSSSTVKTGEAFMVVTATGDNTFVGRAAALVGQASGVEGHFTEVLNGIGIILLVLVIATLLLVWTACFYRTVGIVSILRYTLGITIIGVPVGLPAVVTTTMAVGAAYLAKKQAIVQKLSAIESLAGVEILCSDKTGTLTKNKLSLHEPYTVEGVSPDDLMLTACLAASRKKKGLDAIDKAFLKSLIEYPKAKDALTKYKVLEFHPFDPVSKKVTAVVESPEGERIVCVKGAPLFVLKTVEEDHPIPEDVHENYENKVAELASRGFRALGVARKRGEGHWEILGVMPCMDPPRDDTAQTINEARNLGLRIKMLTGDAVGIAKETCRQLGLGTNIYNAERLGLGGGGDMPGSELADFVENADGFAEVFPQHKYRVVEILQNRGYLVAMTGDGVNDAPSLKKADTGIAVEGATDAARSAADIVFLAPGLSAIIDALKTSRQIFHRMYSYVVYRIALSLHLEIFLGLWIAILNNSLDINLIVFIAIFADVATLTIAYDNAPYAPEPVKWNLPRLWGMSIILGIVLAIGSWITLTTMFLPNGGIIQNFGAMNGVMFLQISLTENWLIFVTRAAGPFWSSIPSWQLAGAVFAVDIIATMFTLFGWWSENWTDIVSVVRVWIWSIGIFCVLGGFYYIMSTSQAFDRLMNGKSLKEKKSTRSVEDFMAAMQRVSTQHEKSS
UniProt Q04373: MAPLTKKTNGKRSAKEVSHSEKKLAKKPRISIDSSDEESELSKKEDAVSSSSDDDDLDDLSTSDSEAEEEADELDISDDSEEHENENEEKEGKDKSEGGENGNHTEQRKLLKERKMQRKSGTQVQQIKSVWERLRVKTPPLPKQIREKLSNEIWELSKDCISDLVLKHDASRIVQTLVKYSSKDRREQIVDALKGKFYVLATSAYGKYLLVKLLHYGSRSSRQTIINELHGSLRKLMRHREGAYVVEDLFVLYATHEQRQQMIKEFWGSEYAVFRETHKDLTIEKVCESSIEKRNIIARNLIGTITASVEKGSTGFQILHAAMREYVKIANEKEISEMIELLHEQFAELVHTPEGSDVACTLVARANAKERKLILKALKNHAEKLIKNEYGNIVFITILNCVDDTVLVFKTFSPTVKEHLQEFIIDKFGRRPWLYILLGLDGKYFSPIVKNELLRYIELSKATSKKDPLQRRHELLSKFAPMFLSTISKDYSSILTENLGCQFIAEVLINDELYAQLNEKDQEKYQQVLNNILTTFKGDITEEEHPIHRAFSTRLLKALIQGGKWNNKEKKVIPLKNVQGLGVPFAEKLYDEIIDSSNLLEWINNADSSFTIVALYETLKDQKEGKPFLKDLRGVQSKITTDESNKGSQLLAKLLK
UniProt P15646: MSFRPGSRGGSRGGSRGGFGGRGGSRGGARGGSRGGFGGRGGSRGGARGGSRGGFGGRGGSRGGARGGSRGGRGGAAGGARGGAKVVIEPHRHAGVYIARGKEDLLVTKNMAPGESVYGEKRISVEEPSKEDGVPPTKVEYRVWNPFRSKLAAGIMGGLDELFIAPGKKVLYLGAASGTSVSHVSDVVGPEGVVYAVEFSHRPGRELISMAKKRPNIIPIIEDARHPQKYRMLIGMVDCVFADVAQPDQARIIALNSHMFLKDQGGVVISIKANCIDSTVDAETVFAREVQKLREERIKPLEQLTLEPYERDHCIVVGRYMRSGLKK
UniProt P05030: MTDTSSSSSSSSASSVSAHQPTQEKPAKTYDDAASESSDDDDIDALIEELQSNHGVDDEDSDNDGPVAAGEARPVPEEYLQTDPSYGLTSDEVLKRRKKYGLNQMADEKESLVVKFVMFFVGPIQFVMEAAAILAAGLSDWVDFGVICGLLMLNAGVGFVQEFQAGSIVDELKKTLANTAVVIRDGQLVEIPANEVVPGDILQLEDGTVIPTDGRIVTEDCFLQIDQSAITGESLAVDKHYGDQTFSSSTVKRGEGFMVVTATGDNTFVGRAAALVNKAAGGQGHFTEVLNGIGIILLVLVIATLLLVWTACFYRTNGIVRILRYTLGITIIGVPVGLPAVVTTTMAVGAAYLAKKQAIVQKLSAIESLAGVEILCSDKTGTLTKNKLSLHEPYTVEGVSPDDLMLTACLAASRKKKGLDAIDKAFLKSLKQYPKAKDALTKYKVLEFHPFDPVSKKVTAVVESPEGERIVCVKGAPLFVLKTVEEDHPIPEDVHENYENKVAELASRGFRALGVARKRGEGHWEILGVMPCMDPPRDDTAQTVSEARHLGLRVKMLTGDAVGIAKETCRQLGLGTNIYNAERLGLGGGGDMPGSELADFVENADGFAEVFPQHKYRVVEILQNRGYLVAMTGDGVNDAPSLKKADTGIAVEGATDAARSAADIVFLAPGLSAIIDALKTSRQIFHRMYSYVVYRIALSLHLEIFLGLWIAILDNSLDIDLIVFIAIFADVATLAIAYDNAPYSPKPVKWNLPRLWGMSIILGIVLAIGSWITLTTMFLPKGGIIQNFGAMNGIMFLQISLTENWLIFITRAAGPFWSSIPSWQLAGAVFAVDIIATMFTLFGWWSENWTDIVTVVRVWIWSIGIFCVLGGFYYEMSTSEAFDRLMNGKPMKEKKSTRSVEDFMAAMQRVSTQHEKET
UniProt P06780: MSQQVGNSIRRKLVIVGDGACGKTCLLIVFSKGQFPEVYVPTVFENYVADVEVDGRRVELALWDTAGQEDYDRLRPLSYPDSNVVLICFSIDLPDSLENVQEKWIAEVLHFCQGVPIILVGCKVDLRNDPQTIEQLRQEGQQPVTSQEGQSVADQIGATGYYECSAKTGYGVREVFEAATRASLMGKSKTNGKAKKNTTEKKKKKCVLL
UniProt P40217: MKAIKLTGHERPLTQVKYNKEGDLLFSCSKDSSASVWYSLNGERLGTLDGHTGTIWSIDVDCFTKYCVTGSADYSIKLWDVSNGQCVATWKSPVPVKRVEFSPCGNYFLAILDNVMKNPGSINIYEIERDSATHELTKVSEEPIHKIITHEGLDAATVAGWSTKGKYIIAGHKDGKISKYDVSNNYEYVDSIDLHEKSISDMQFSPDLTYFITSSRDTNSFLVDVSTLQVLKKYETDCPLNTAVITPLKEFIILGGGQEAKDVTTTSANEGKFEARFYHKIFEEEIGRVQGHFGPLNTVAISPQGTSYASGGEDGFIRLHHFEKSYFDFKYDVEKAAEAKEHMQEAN
UniProt P05453: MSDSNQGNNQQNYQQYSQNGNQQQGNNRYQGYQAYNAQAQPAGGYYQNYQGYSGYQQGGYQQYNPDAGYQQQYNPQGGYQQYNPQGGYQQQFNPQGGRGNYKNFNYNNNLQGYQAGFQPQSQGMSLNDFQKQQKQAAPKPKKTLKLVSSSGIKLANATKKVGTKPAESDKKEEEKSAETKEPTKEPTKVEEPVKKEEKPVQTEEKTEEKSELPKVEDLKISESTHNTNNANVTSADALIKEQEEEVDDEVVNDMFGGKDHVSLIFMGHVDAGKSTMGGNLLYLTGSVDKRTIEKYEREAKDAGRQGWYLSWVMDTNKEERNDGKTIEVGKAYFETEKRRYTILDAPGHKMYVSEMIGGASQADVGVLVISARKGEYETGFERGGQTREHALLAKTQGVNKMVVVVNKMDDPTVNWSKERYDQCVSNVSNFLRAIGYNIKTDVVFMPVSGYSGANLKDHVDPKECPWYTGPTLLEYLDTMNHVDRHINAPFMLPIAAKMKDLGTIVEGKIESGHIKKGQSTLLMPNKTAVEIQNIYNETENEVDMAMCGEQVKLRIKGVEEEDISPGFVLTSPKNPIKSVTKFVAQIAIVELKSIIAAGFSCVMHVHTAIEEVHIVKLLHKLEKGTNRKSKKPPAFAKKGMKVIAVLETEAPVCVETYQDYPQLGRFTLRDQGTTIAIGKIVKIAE

The target of assay [2] is T1, Dcp1-myc (S. cerevisiae) (UniProt Q12517).
T1 sequence: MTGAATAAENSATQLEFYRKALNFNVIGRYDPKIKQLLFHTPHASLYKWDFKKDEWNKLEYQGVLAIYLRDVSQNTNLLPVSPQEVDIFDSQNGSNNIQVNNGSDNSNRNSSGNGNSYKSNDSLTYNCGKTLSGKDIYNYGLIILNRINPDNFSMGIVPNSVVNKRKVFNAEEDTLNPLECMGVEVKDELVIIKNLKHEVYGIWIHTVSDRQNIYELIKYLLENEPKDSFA
The description is as above.

For assay [3], the target named is Pbp1-myc (S. cerevisiae) (UniProt P53297). The description is as above. The source holds these as a separate data set.
Assay [4] has as its target T1, Dcp1-myc (S. cerevisiae). Described as above. This is another data set of the same source.
The target in assay [5] is T2, Dcp1-myc (S. cerevisiae), Q12517.
T2 chain: T1 sequence
Put plainly: affinity purification with mass spectrometry; cells unstressed or glucose-depleted (10 min for Dcp1-myc, 60 min for Pbp1-myc), cross-linked with 0.8% formaldehyde; 20,000 g pellet of the lysate in Blob100 buffer (20 mM Tris-HCl pH 8, 100 mM NaCl, 1 mM MgCl2, 0.5% NP40) on anti-c-Myc magnetic beads, eluted with Myc peptide; label-free LC-MS/MS; hits are the proteins that cluster (Mfuzz) with the tagged bait across …. As to conditions: remark: other sources report otherwise.

Like-named read-outs stand apart in the source and are kept apart here. Results are given in words; binding and its absence hold for the method and conditions named. Binding seen in cells or lysates may run through a third protein. A yes stands for co-enrichment or nearness to the bait. Other partners may have been found. For some assays here: Where a sequence is shown, tags or fusion partners need not be part of it.

For Pab1 (from UniProt P04147 1-577), the binding entry in assay [1] and in assay [2] was “binds” in each case.
For Yck2 (from UniProt P23292 1-546), the binding entry in assay [1] and in assay [2] was “binds” in each case.
Consider Ded1 (from UniProt P06634 1-604), for which, in assay [1], the binding result is given as “binds”.
In the case of Xrn1 (from UniProt P22147 1-1528), in assay [2], the binding entry was “binds”.
Consider Pma2 (from UniProt P19657 1-947), for which the binding result in assay [1] and in assay [2] was “binds” in each case.
Puf6 (from UniProt Q04373 1-656): the binding result in assay [1] is given as “binds”.
In the case of Snq2 (from UniProt P32568 1-1501), the binding result in assay [1] and in assay [2] was “binds” each time.
Regarding Gar1 (from UniProt P28007 1-205), in assay [1], the binding entry is listed as “binds”.
Still for that read-out and setting: the value for Nop1 (from UniProt P15646 1-327) was “binds”; that for Pma1 (from UniProt P05030 1-918) was “binds”.
Take Rho1 (from UniProt P06780 1-209): the binding result in assay [1] is “binds”.
On the same count and under the same terms, in the case of eIF3i (from UniProt P40217 1-347) it was “binds”.
The same measure, in the same setting: in the case of Sup35 (from UniProt P05453 1-685) it was “binds”.
Turning to Pbp1 (from UniProt P53297 1-722), the binding entry in assay [2] was “binds”.
On to Sec1 (from UniProt P30619 1-724), for which the binding result in assay [1] is reported as “binds”.
Still for that read-out and setting: the value for Rpb2 (from UniProt P08518 1-1224) was “binds”.

B1: Cdc12 (protein, UniProt P32468 1-407)
chain: MSAATATAAPVPPPVGISNLPNQRYKIVNEEGGTFTVMLCGESGLGKTTFINTLFQTVLKRADGQQHRQEPIRKTVEIDITRALLEEKHFELRVNVIDTPGFGDNVNNNKAWQPLVDFIDDQHDSYMRQEQQPYRTKKFDLRVHAVLYFIRPTGHGLKPIDIETMKRLSTRANLIPVIAKADTLTAQELQQFKSRIRQVIEAQEIRIFTPPLDADSKEDAKSGSNPDSAAVEHARQLIEAMPFAIVGSEKKFDNGQGTQVVARKYPWGLVEIENDSHCDFRKLRALLLRTYLLDLISTTQEMHYETYRRLRLEGHENTGEGNEDFTLPAIAPARKLSHNPRYKEEENALKKYFTDQVKAEEQRFRQWEQNIVNERIRLNGDLEEIQGKVKKLEEQVKSLQVKKSHLK
In the case of B1, the binding entry in assay [3] and in assay [4] was “binds” each time.

B2: Cdc73 (protein, UniProt Q06697 1-393)
chain: MANSLDRLREHLKNGDKLVLKNNEGQSTDDITKATMVETLSSDGSTQDSFPLNEETEIEIDGSLVQLRIIVHCWMNKDSSAADYLADCQNKQLTNVSFLQRTDLINWLSGNTESSQYLKAPGQKGETSDKVDIENKTLAGELSTVKSTTSASLENDSEVSDPVVVETMKHERILVDHNSALRGAKPINFGYLIKDAELKLVQSIKGSLRGSKLPPGHKGAHGRISKTNGSSGGPRKDPIILIPSAASSILTVANIKQFLLESKYVNPRNLPSVPNGLVNIEKNFERISRPIRFIIVDNTRMFTKPEYWDRVVAIFTTGHTWQFNNYQWNSPQELFQRCKGYYFHFAGDSVPQHVQQWNVEKVELDKNKRFKDVEVVRYFWHSLEKELISRGYR
On to B2, for which the binding result in assay [3] and in assay [4] was “binds” in each case.

B3: Chs5 (protein, UniProt Q12114 1-671)
chain: MSSVDVLLTVGKLDASLALLTTQDHHVIEFPTVLLPENVKAGSIIKMQVSQNLEEEKKQRNHFKSIQAKILEKYGTHKPESPVLKIVNVTQTSCVLAWDPLKLGSAKLKSLILYRKGIRSMVIPNPFKVTTTKISGLSVDTPYEFQLKLITTSGTLWSEKVILRTHKMTDMSGITVCLGPLDPLKEISDLQISQCLSHIGARPLQRHVAIDTTHFVCNDLDNEESNEELIRAKHNNIPIVRPEWVRACEVEKRIVGVRGFYLDADQSILKNYTFPPVNEEELSYSKENEPVAEVADENKMPEDTTDVEQVASPNDNESNPSEAKEQGEKSGHETAPVSPVEDPLHASTALENETTIETVNPSVRSLKSEPVGTPNIEENKADSSAEAVVEEPNEAVAESSPNEEATGQKSEDTDTHSNEQADNGFVQTEEVAENNITTESAGENNEPADDAAMEFGRPEAEIETPEVNESIEDANEPAEDSNEPVEDSNKPVKDSNKPVEDSNKPVEDSNKPVEDSNKPVEDANEPVEDTSEPVEDAGEPVQETNEFTTDIASPRHQEEDIELEAEPKDATESVAVEPSNEDVKPEEKGSEAEDDINNVSKEAASGESTTHQKTEASASLESSAVTEEQETTEAEVNTDDVLSTKEAKKNTGNSNSNKKKNKKNKKKGKKK
With B3, the binding entry in assay [3] and in assay [4] was “binds” throughout.

B4: Scd6, P45978 1-349 (protein)
chain: MSQYIGKTISLISVTDNRYVGLLEDIDSEKGTVTLKEVRCFGTEGRKNWGPEEIYPNPTVYNSVKFNGSEVKDLSILDANINDIQPVVPQMMPPASQFPPQQAQSPPQAQAQAHVQTNPQVPKPESNVPAAVAGYGVYTPTSTETATASMNDKSTPQDTNVNSQSRERGKNGENEPKYQRNKNRSSNRPPQSNRNFKVDIPNEDFDFQSNNAKFTKGDSTDVEKEKELESAVHKQDESDEQFYNKKSSFFDTISTSTETNTNMRWQEEKMLNVDTFGQASARPRFHSRGLGRGRGNYRGNRGNRGRGGQRGNYQNRNNYQNDSGAYQNQNDSYSRPANQFSQPPSNVEF
In the case of B4, the binding entry in assay [5] was “binds”.

B5: Lsm1, P47017 1-172 (protein)
chain: MSANSKDRNQSNQDAKRQQQNFPKKISEGEADLYLDQYNFTTTAAIVSSVDRKIFVLLRDGRMLFGVLRTFDQYANLILQDCVERIYFSEENKYAEEDRGIFMIRGENVVMLGEVDIDKEDQPLEAMERIPFKEAWLTKQKNDEKRFKEETHKGKKMARHGIVYDFHKSDMY
Regarding B5, the binding result in assay [5] is on record as “binds”.

B6: Pat1, P25644 1-796 (protein)
chain: MSFFGLENSGNARDGPLDFEESYKGYGEHELEENDYLNDETFGDNVQVGTDFDFGNPHSSGSSGNAIGGNGVGATARSYVAATAEGISGPRTDGTAAAGPLDLKPMESLWSTAPPPAMAPSPQSTMAPAPAPQQMAPLQPILSMQDLERQQRQMQQQFMNFHAMGHPQGLPQGPPQQQFPMQPASGQPGPSQFAPPPPPPGVNVNMNQMPMGPVQVPVQASPSPIGMSNTPSPGPVVGATKMPLQSGRRSKRDLSPEEQRRLQIRHAKVEKILKYSGLMTPRDKDFITRYQLSQIVTEDPYNEDFYFQVYKIIQRGGITSESNKGLIARAYLEHSGHRLGGRYKRTDIALQRMQSQVEKAVTVAKERPSKLKDQQAAAGNSSQDNKQANTVLGKISSTLNSKNPRRQLQIPRQQPSDPDALKDVTDSLTNVDLASSGSSSTGSSAAAVASKQRRRSSYAFNNGNGATNLNKSGGKKFILELIETVYEEILDLEANLRNGQQTDSTAMWEALHIDDSSYDVNPFISMLSFDKGIKIMPRIFNFLDKQQKLKILQKIFNELSHLQIIILSSYKTTPKPTLTQLKKVDLFQMIILKIIVSFLSNNSNFIEIMGLLLQLIRNNNVSFLTTSKIGLNLITILISRAALIKQDSSRSNILSSPEISTWNEIYDKLFTSLESKIQLIFPPREYNDHIMRLQNDKFMDEAYIWQFLASLALSGKLNHQRIIIDEVRDEIFATINEAETLQKKEKELSVLPQRSQELDTELKSIIYNKEKLYQDLNLFLNVMGLVYRDGEISELK
With B6, the binding entry in assay [5] is “binds”.
